From article PMC12040169 (PLOS Biology, 2025)
This is one part of the list.

What follows are molecules tested on T1, CTL2-GFP (C. trachomatis L2/434/Bu, GFP-expressing). Conditions: bulk GFP, single well; 28.5 h, 10 µM; inhibitor.
T1 construct: L2/434/Bu, GFP-expressing
Set-up: species or system HeLa; Intracellular C. trachomatis growth in HeLa cells, bulk GFP fluorescence relative to DMSO

SMILES | % of control remaining
CC(=O)Nc1ccc(CN2Cc3nc[nH]c3C[C@H]2c2nc(-c3ccc(F)cc3)no2)cc1 [CBK288956] | 107.161%
CC(NC(=O)C1CCN(Cc2ccc(Oc3ccccc3)cc2)CC1)c1ccccc1 (stereo not shown) [CBK148618] | 94.7628%
CN(C)CCN(C)c1cc(-c2cccc(C(=O)O)c2)nc2ccnn12 [CBK037206] | 136.19%
CCc1cccc(NC(=O)NCCC2=CCCCC2)c1 [CBK045009] | 107.844%
CC(Sc1ccccc1)C(=O)NCCCN1CCOCC1 (stereo not shown) [CBK269214] | 112.836%
CN(C)S(=O)(=O)c1ccc(C(=O)Nc2ccc(Br)cc2C(=O)c2ccccc2)cc1 [CBK263243] | 116.481%
Cc1cc(NC(=O)c2ccc3[nH]ccc3c2)c2ccccc2n1 [CBK116270] | 92.1939%
COc1ccc(CNC(=O)c2cc(S(=O)(=O)N3CCCC3)cn2C)cc1 [CBK304637] | 99.6208%
COc1ccc(OC)c(NC(=O)C(C)Oc2ccccc2OC)c1 (stereo not shown) [CBK269766] | 136.688%
CCOC(=O)c1c(NC(=O)C2C3CCC(C3=C(C)C)C2C(=O)O)sc2c1CCCCC2 (stereo not shown) [CBK265439] | 112.582%
Cc1ccc(C(=O)Nc2nnc(C3=COCCO3)o2)cc1C [CBK287413] | 123.902%
O=C(CCNc1n[nH]c(=O)[nH]c1=O)N/N=C/c1ccc(C(F)(F)F)cc1 [CBK263518] | 116.431%
COc1ccc(S(=O)(=O)N2CCN(C(=O)c3cc(-c4ccncc4)nc4ccc(Br)cc34)CC2)cc1 [CBK267750] | 87.7814%
Cc1noc(C)c1CN1CCC(c2ccccc2)C1 (stereo not shown) [CBK304451] | 120.213%
COc1ccnc(Sc2ccc(Cl)cc2)c1C#N [CBK018571] | 95.5954%
Cc1nc(CCNC(=O)N(Cc2ccsc2)C2CC2)nc2c1CCCC2 [CBK307674] | 119.065%
O=[N+]([O-])c1ccc2c(c1)C(O)n1nc(-c3ccncc3)nc1S2 (stereo not shown) [CBK288533] | 117.303%
CN(CC(=O)N(C)CC(F)(F)F)Cc1cccnc1 [CBK282075] | 106.61%
CC(C)c1ccc(OCC(=O)NCc2ccccn2)c(Br)c1 [CBK265910] | 100%
CN1CCN(CCC(=O)N/N=C/c2ccc3c(c2)OCO3)CC1 [CBK261498] | 100%

SMILES | % of control remaining
O=C(CCc1cccc(F)c1)Nc1cnc(-c2ccc(F)cc2)c(-c2ccoc2)n1 [CBK037077] | 138.52%
NC(=O)c1ccc(C#Cc2ccccc2)o1 [CBK009809] | 102.682%
Cc1nn(C)c(C)c1C1CCCN1CC(=O)NCc1ccccn1 (stereo not shown) [CBK305501] | 136.129%
Oc1cccc(-c2nccnc2NCc2ccc(Cl)cc2)c1 [CBK037650] | 131.595%
Cc1cnc2n(c1=O)C(CC(=O)NCc1ccncc1)CS2 (stereo not shown) [CBK287671] | 107.922%
CCC(C(=O)N1CCC(O)(c2ccccn2)CC1)c1ccccc1 (stereo not shown) [CBK283768] | 88.9%
O=C(NC[C@H]1C[C@@H]2CC[N@]1C[C@@H]2CN1CCN(c2ccccn2)CC1)Nc1ccsc1 [CBK289113] | 135.166%
O=C(COc1ccc(F)cc1)Nc1ccc2ncccc2c1 [CBK159816] | 131.68%
O=C(CSc1nnc(-c2ccccc2F)n1-c1ccccc1)Nc1ccc2cn[nH]c2c1 [CBK267591] | 115.79%
COC(=O)c1sccc1N1C(=O)CSCC1=O [CBK021934] | 158.102%
Cc1ccc(C(=O)CCC(=O)CCC(=O)O)cc1 [CBK265546] | 119.338%
COc1ccc(C(=O)NC(Nc2ccccc2)C(Cl)(Cl)Cl)cc1OC (stereo not shown) [CBK263680] | 70.2108%
Cc1ccc(C(=O)CC(C(=O)O)c2cn(CCC#N)c3ccccc23)cc1 (stereo not shown) [CBK287194] | 128.627%
COCCN1C(=O)C2(CC(=O)N(CCCCC(C)C)C2=O)c2cc(OC)ccc21 (stereo not shown) [CBK075145] | 114.851%
O=C(CSCc1ccccc1Cl)Nc1ccc(-c2nnc(-c3ccccc3)o2)cc1 [CBK268656] | 103.355%
Cc1nn(Cc2ccccc2)c(C)c1NC(=O)CSc1nc2c(c(C(F)(F)F)n1)CCc1ccccc1-2 [CBK266112] | 196.34%
O=C(c1cccc(F)c1)N1CCC(c2nnc3n2CCCCC3)CC1 [CBK284627] | 134.778%
CSc1nc2sc3c(c2c(=O)n1-c1ccccc1C)CC(C)(C)OC3 [CBK091875] | 104.115%
Cc1ccc(OCCCN2CCN(C)CC2)c(Cc2ccccc2)c1 [CBK269650C] | 109.878%
CCn1cc(CN(Cc2ccccc2)CC2CCCO2)c(C)n1 (stereo not shown) [CBK283265] | 120.764%

Shown tab-delimited: part of the list above.
SMILES	% of control remaining
Oc1cccc(-c2nccnc2NCc2ccc(Cl)cc2)c1 [CBK037650]	131.595%
Cc1cnc2n(c1=O)C(CC(=O)NCc1ccncc1)CS2 (stereo not shown) [CBK287671]	107.922%
